Laboratory results as given in patent US9527889B2, “RFamide-related peptides and methods thereof” (THE REGENTS OF THE UNIVERSITY OF MICHIGAN, priority 2010, dated 2016).
Not every detail of the peptide structures is certain; ends, links or a residue may be inferred. Residues, ends and D or L forms follow the SMILES beside them.

Tested on: rat cardiac myocytes myofilament proteins
Assay: 32P-labeling of rat cardiac myocyte proteins
Type: cell-based
Settings: 10^−8M, with calyculin A

For `CSCC[C@H](N)C(=O)N1CCC[C@H]1C(=O)N[C@@H](Cc1c[nH]cn1)C(=O)N[C@@H](CO)C(=O)N[C@@H](Cc1ccccc1)C(=O)N[C@@H](C)C(=O)N[C@@H](CC(N)=O)C(=O)N[C@@H](CC(C)C)C(=O)N1CCC[C@H]1C(=O)N[C@@H](CC(C)C)C(=O)N[C@@H](CCCNC(=N)N)C(=O)N[C@@H](Cc1ccccc1)C(N)=O` [hRFRP-1] (H-MPHSFANLPLRF-NH2), the “phosphorylation of myofilament proteins (cTnI, TnT, MLC2)” value was “consistent with phosphorylation of myofilament proteins”.
